In this experiment the target is T1, LGR6 on HCT116 cells (human colon cancer cell line) (human) (UniProt Q9HBX8).
T1 sequence (looked up): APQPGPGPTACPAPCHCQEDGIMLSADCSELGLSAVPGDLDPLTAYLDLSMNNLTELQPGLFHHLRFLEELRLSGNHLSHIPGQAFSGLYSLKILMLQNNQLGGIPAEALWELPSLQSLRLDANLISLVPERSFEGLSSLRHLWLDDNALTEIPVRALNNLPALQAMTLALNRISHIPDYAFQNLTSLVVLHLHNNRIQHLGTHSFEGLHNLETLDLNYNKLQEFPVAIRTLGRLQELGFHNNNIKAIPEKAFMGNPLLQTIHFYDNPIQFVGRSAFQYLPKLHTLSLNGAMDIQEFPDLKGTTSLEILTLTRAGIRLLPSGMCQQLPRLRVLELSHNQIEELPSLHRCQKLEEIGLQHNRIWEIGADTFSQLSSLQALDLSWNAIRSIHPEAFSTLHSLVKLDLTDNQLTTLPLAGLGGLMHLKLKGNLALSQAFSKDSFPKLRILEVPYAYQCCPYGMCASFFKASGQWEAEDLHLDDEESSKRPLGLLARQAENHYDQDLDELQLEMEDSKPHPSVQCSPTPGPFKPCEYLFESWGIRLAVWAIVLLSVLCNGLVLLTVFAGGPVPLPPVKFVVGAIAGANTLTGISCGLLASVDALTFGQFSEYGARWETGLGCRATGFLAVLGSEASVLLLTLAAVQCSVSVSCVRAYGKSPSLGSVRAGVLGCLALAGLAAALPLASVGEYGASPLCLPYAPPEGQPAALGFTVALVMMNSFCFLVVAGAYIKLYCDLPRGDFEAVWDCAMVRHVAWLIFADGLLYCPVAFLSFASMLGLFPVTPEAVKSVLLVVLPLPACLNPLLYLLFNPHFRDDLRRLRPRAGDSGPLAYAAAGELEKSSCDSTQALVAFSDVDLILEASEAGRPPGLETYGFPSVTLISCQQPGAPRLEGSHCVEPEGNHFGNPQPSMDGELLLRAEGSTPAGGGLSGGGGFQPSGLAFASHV
Description: immunofluorescence staining of HCT116 cells.

Results are given in words; binding and its absence hold for the method and conditions named. Some results given as binding are weak or reduced against the parent protein; the word gives no strength.

B1: m164抗体 (anti-LGR6 mouse monoclonal antibody produced by hybridoma clone 164) (antibody, V domains shown)
VH: EVQLQQSGPELVKPGASVKISCKTSGYTFTEYTMHWVKQSHGKSLEWIGGINPYNRVSSYNQRFKGKATLTVDKSSSTAYMELRSLTSEDSAVYYCARRYDVFDSWGQGTTLTVSS
VL: DIVMSQSPSSLAVSVGEKVSMSCKSSQSLLYSSNQKNYLAWYQQKPGQSPKLLISWASTRESGVPARFTGSGSGTDFTLTISSVRAEDLAVYYCQQHFNYPYTFGGGAKLEMK
With B1, the binding result is “binds”.

For the origin of these results see JP2018158894A.
